The record followed here is article PMC8989545.

The target in data set [1] is human serum albumin (HSA) (Homo sapiens) (UniProt P02768). Kind of data set: flow cytometry on HSA-coated beads. As to conditions: 5 mM Mg2+, 'rarely binds to HSA'; cells: DPBS, 4.5 g/L glucose, 5 mM MgCl2, 0.1 mg/ml yeast tRNA, 1 mg/ml BSA, 4 C, 30 min; pH not stated; commercial protein; label: FAM; single-stranded DNA. Background: A flow cytometer gives signals particle by particle.

Data set [2] shares this target. Put plainly: flow cytometry. As to conditions: significantly weaker than SYL3C-F20; cells: DPBS, 4.5 g/L glucose, 5 mM MgCl2, 0.1 mg/ml yeast tRNA, 1 mg/ml BSA, 4 C, 30 min; pH not stated; commercial …; label: Cy5; single-stranded DNA.

For at least one entry, the source does not settle the construct or the ends of the probe. The comparison behind a weaker result is the experiment's own reference, which may not be listed here.

For the sequence “ATCTAACTGCTGCGCCGCCGGGAAAATACTGTACGGTTAGA [Sgc8]”, in data set [1], the binding result was “binds more weakly”.
Regarding “CACTACAGAGGTTGCGTCTGTCCCACGTTGTCATGGGGGGTTGGCCTG [SYL3C]”, the binding result in data set [2] was “binds more weakly”.
